Our source for the step yield values is patent US6323315A (priority 2000, dated 2001).

A short description of this series: general procedure: solution-phase peptide synthesis. The note with it: coupling step.

Consider Dov-Val-Dil-Dap-isopropylamide, for which the step yield is given as 96% yield.
Then Dov-Val-Dil-Dap-methylamide, with 82%.
